# Assay results reported in the supplement of paper PMC6924143.
# System: RAW-Blue (mouse TLR9 reporter, RAW 264.7)
# Assay: mTLR9 reporter activity (SEAP, QUANTI-Blue absorbance) (OD650); higher = stronger mouse TLR9 activation
# Details: 3 h
# Description: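 Synthetic single-stranded 24-mer CpG ODNs were diluted in saline and added to mouse RAW-Blue cells (RAW 264.7 with an NF-kB/AP-1-inducible SEAP reporter; endogenous mouse TLR9), about 1e5 cells/well. After 3 h, SEAP in the supernatant was read with QUANTI-Blue as absorbance at 650 nm. ODN concentration and backbone chemistry are not stated; activity of 0.4 or above is the paper's high-activity class.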
sequence,measurement,value
TAGTCGCGCTCGCGCGTGCTTCGT [ODN198],mTLR9 reporter activity,0.133
TCTACGCGTCTCGCGCGTGTTGCT [ODN181],mTLR9 reporter activity,0.082
TCGTTTTGTGCGTCGAGCGTTGTT [ODN664],mTLR9 reporter activity,0.352
TCCCTCATTCGTTGCGGCCGGCGG [mODN96],mTLR9 reporter activity,0.58
TCAGTGCGCTGCGCGTCTCGTTGT [ODN143],mTLR9 reporter activity,0.167
TCGCGCGTAGTTGTGCTCTTTCGT [ODN182],mTLR9 reporter activity,0.148
TCGTCGCGTGCTGCTGTTCGTACT [ODN270],mTLR9 reporter activity,0.243
TCGCGTGCGTCGTTGAGTCTTTTT [ODN127],mTLR9 reporter activity,0.362
TCGCGTGCGATGCGCTTCTGTCGT [ODN207],mTLR9 reporter activity,0.154
TCGAGGGCCGGCGCCCTTCGGTTA [mODN-027],mTLR9 reporter activity,0.25
TTGAGCGCTTTGTCTCGCGTGCGT [ODN123],mTLR9 reporter activity,0.216
TCCCGAGGCCGTTACGTCCGTTGC [mODN045],mTLR9 reporter activity,0.47
TCTCGACGTCGTGCGTCTGTGTGT [ODN171],mTLR9 reporter activity,0.153
TGCGTTCGTGCGTCGCGTGTGAGT [ODN214],mTLR9 reporter activity,0.145
TCGTTGCGGGGCTTCGTCCGCGCG [mODN92],mTLR9 reporter activity,0.5
TTCGCGCGTTCGTCTCTGTCGTGT [ODN236],mTLR9 reporter activity,0.321
TCCGAGATTGCCACGTTGCGGCCG [mODN-017],mTLR9 reporter activity,0.18
TTTTCGCGCTTTTGTAGTGTGCGT [ODN005],mTLR9 reporter activity,0.788
TGTTTTCTGCGTTTTGACGAGCGT [ODN016],mTLR9 reporter activity,0.595
TCTTCGACGCGCCGGTGGCGTTCT [mODN051],mTLR9 reporter activity,0.28
TCCGCGGCGCACTTGTTCGACGAC [mODN053],mTLR9 reporter activity,0.43
TGTGCGCTTGTTGCAGAGTCTTTT [ODN085],mTLR9 reporter activity,0.166
TCGGCCGTTCGCATTACGCTGGCC [mODN037],mTLR9 reporter activity,0.89
TCGTTCGCGCGCTCGTCTTTGTGT [ODN167],mTLR9 reporter activity,0.183
TCCTTGGCTCCGTCGACGGCGCTT [mODN93],mTLR9 reporter activity,0.41
TTGCGCGCGTCGCTCTGCGCTGTT [ODN212],mTLR9 reporter activity,0.125
TCGTGCTTTAGCGTCGTGTCGTCT [ODN253],mTLR9 reporter activity,0.156
TCGCGTGCGTATTTTTGCGTCTGT [ODN210],mTLR9 reporter activity,0.145
TCGTTCGTGCTCTAGCGCGTTGTT [ODN163],mTLR9 reporter activity,0.159
TCCGCCGTTCGGCCAGTTGTACGG [mODN068],mTLR9 reporter activity,0.52
TTGCGCTTGTCGCGCGTCTTTAGT [ODN250],mTLR9 reporter activity,0.2
TTGCTTCGCGCTGAGCGTCGTTGT [ODN226],mTLR9 reporter activity,0.185
TCGGCTCCGTCGGCCTTCTTGCGG [mODN73],mTLR9 reporter activity,0.46
TGTGAGTTTTGCTTTTCGCGCAGT [ODN059],mTLR9 reporter activity,0.147
TCGTGCGTTTTTGTTTTGTCGCGT [ODN055.2],mTLR9 reporter activity,0.948
TGTGCGTTCTCGCGTTGCGTGTGT [ODN242],mTLR9 reporter activity,0.208
TCGGGCGACTTTACGCACCGCGTT [mODN74],mTLR9 reporter activity,0.63
TCGGTCGACCTTGCGCGGCGTTCA [mODN063],mTLR9 reporter activity,0.76
TCGCGTTCCTTGTCCGGCGGTACG [mODN-021],mTLR9 reporter activity,0.65
TGTCGCGTGTGCGTAGCTGCACTT [ODN065],mTLR9 reporter activity,0.261
TTGTTTCGTGTTTTCGACGCGCGT [ODN240],mTLR9 reporter activity,0.166
TTCGCTGATCTGTGTGCGTGTGTT [ODN078],mTLR9 reporter activity,0.168
TGCAGTGCGTGTTTTGCGTCTTTT [ODN012],mTLR9 reporter activity,0.34
TGCGCGTCTGCGCTTGCTCACGTT [ODN139],mTLR9 reporter activity,0.145
TCGCGTTCGCTTGTGTACGTCTGT [ODN205],mTLR9 reporter activity,0.231
TGTCGCGTTTCGTGTTCTTGCGTT [ODN264],mTLR9 reporter activity,0.172
TGTCGTCGCATCGCGCTGTGTTGT [ODN147],mTLR9 reporter activity,0.388
TCGGTCCGTTGTTCGCAGCACGCT [mODN-025],mTLR9 reporter activity,0.43
TCGCTGCTTGGCATTGCCGCGACG [mODN-020],mTLR9 reporter activity,0.37
TCGCGTTCGTCGATGTCGTTCTGT [ODN648],mTLR9 reporter activity,0.952
TCGTGCGTGTGATTCGCGCTTTCT [ODN535],mTLR9 reporter activity,0.285
TCGCGCGTCGCTGCTGTGTGTTGT [ODN140],mTLR9 reporter activity,0.375
TGTGCGCGTGCGTCGCTCTTGATT [ODN194],mTLR9 reporter activity,0.102
TCCGCGGCGCCTTGACCGTTGACG [mODN-022],mTLR9 reporter activity,0.14
TCAGAGCGAGTTGTTCTACGTGTT [ODN068],mTLR9 reporter activity,0.163
TCGAGCGTCTTTCGCGCGTGCTGT [ODN220],mTLR9 reporter activity,0.19
TCGTTCCCGGACGGAGGTCTTCGC [mODN-002],mTLR9 reporter activity,0.15
TCGGCGTTACCGCCCGGGTTTACA [mODN85],mTLR9 reporter activity,0.6
TCCGGTTCGCGTATAGCCCGCGTT [mODN-014],mTLR9 reporter activity,0.14
TGTGAGCGTAGCGCGCTTTTTTTT [ODN050],mTLR9 reporter activity,0.238

# Taken from the entries so far for reference:
sequence,measurement,value
TCGTTTTGTGCGTCGAGCGTTGTT [ODN664],mTLR9 reporter activity,0.352
TCCCTCATTCGTTGCGGCCGGCGG [mODN96],mTLR9 reporter activity,0.58
TCAGTGCGCTGCGCGTCTCGTTGT [ODN143],mTLR9 reporter activity,0.167
TCGCGCGTAGTTGTGCTCTTTCGT [ODN182],mTLR9 reporter activity,0.148
TCGTCGCGTGCTGCTGTTCGTACT [ODN270],mTLR9 reporter activity,0.243
TCGCGTGCGTCGTTGAGTCTTTTT [ODN127],mTLR9 reporter activity,0.362
TCGCGTGCGATGCGCTTCTGTCGT [ODN207],mTLR9 reporter activity,0.154
TCGAGGGCCGGCGCCCTTCGGTTA [mODN-027],mTLR9 reporter activity,0.25
TTGAGCGCTTTGTCTCGCGTGCGT [ODN123],mTLR9 reporter activity,0.216
TCCCGAGGCCGTTACGTCCGTTGC [mODN045],mTLR9 reporter activity,0.47
TCTCGACGTCGTGCGTCTGTGTGT [ODN171],mTLR9 reporter activity,0.153
TGCGTTCGTGCGTCGCGTGTGAGT [ODN214],mTLR9 reporter activity,0.145
TCGTTGCGGGGCTTCGTCCGCGCG [mODN92],mTLR9 reporter activity,0.5
TTCGCGCGTTCGTCTCTGTCGTGT [ODN236],mTLR9 reporter activity,0.321
TCCGAGATTGCCACGTTGCGGCCG [mODN-017],mTLR9 reporter activity,0.18
TTTTCGCGCTTTTGTAGTGTGCGT [ODN005],mTLR9 reporter activity,0.788

# Single values of this set are uncertain.
